Assay [1] concerns the target T1, TAP-tagged Swi6 (S. cerevisiae) (UniProt P09959).
T1 sequence: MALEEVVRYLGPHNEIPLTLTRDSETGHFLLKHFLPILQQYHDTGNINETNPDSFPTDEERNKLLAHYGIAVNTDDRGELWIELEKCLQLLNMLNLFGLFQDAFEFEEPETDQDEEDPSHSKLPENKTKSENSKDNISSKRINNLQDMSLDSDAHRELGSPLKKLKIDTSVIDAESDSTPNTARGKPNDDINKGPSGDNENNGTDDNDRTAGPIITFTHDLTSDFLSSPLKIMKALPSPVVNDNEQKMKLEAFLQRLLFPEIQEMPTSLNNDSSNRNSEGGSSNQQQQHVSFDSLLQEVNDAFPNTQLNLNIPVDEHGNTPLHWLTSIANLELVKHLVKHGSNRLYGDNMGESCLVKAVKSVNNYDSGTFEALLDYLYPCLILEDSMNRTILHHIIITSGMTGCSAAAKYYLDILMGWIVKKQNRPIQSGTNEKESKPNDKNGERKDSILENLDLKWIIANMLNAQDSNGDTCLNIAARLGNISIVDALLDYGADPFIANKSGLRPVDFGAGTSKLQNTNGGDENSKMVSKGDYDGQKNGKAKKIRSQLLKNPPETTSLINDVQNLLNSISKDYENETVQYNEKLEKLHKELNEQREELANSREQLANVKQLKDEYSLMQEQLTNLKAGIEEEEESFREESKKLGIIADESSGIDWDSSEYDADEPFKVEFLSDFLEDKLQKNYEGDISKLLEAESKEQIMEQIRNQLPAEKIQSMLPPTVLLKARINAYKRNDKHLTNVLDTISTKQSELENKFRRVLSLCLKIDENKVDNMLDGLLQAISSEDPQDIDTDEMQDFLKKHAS
Kind of assay: co-IP; TAP-tagged Swi6 or Whi5 precipitated from yeast cell extract with rabbit IgG-agarose beads (Protein A moiety of the tag), overnight at 4°, binding buffer 20 mM Tris-HCl pH 8.0, 137 mM NaCl, 1% NP-40, 2 mM EDTA; Western blot with anti-Ess1 antibody.

For assay [2], the target named is T2, TAP-tagged Whi5 (S. cerevisiae) (UniProt Q12416).
T2 sequence: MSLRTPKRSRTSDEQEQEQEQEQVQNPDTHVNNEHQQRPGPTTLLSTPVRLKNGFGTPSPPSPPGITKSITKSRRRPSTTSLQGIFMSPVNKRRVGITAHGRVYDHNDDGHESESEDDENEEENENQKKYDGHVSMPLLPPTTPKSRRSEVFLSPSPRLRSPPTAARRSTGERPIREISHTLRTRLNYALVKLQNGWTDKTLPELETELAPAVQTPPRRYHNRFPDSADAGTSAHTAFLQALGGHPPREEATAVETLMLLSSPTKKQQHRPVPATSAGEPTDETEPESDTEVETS
The description is as above.

No constants are given. Whether binding was seen depends on the method and setting. In cells and extracts the contact can be indirect. Some results given as binding are weak or reduced against the parent protein; the word gives no strength. Sequences can lack the tags named with a protein.

Results on one molecule are retold here after article PMC3962490, “The Yeast Ess1 Prolyl Isomerase Controls Swi6 and Whi5 Nuclear Localization” (G3: Genes|Genomes|Genetics, 2014).

B1: Ess1 (endogenous, yeast cell extract) (enzyme, UniProt P22696 1-170)
chain: MPSDVASRTGLPTPWTVRYSKSKKREYFFNPETKHSQWEEPEGTNKDQLHKHLRDHPVRVRCLHILIKHKDSRRPASHRSENITISKQDATDELKTLITRLDDDSKTNSFEALAKERSDCSSYKRGGDLGWFGRGEMQPSFEDAAFQLKVGEVSDIVESGSGVHVIKRVG
For the molecule B1, the binding entry in assay [1] and in assay [2] was “binds” each time.
